Article PMC11933467

Protein sequences, listed by entry. Tags and fused reporters are not part of them. Lines headed by an entry give the natural chain unless they say otherwise; changes in a name come on top.
UniProt Q9VWS1: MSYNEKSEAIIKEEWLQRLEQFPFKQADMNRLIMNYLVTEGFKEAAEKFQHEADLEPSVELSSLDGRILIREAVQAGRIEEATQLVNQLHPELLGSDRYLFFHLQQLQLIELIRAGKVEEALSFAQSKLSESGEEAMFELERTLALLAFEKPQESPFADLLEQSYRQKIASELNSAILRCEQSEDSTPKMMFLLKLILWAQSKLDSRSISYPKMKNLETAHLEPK

Assays:
[1] = molecular target: T1, ME31B-GFP (Drosophila melanogaster) (UniProt P23128); assay: co-IP; anti-GFP immunoprecipitation of ME31B-GFP from stage 14 oocyte lysate; western blot for Muskelin
T1 sequence: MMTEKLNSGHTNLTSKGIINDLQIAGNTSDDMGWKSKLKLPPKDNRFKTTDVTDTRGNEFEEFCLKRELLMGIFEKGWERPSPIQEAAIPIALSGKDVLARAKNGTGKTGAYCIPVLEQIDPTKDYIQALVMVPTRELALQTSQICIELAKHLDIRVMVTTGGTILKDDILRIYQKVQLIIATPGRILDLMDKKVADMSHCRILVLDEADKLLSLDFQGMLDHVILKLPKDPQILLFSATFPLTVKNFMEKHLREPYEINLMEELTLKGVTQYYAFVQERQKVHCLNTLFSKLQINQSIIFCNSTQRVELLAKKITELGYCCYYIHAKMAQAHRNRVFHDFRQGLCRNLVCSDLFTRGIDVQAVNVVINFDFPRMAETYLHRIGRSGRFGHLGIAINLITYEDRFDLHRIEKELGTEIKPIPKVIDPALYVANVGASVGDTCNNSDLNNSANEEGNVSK

[2] = molecular target: T2, ME31B (Drosophila melanogaster (endogenous in embryos)) (UniProt P23128); assay: cross-linking; 0-1 h w1118 embryo lysate cross-linked with 0.2 mM DTSP, denatured, anti-ME31B immunoprecipitation with denaturing washes, crosslink reversed; western blot and mass spectrometry (against IgG)
T2 sequence: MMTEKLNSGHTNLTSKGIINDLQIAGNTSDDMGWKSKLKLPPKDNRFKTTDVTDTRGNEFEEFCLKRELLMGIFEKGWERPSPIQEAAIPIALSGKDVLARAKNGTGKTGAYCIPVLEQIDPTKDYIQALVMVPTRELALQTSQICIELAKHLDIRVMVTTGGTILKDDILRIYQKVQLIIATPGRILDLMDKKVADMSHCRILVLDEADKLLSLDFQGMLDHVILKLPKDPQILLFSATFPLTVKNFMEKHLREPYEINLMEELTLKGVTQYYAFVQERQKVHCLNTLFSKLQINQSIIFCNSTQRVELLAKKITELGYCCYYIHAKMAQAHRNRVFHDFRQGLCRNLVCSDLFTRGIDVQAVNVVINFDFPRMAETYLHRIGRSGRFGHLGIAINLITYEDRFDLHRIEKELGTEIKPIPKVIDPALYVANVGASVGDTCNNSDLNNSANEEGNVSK

[3] = molecular target: T2, ME31B (Drosophila melanogaster (endogenous in embryos)); assay: condition: only DMSO instead of DTSP (no cross-linker), denaturing conditions; co-IP; 0-1 h w1118 embryo lysate treated with DMSO (no cross-linker), denatured, anti-ME31B immunoprecipitation with denaturing washes; western blot
[4] = molecular target: Muskelin (Drosophila melanogaster (endogenous in embryos and oocytes)); assay: condition: only 4-5 h control embryos (end of the MZT); co-IP; anti-Muskelin immunoprecipitation from 4-5 h control (mCherry knockdown) embryo lysate, end of the MZT; lysis buffer A washes; western blot
[5] = molecular target: Muskelin (Drosophila melanogaster (endogenous in embryos and oocytes)); assay: co-IP; anti-Muskelin immunoprecipitation on protein G beads from staged embryo lysates (0-1 h control mCherry, RanBPM or Kdo knockdown; Kdo knockdown also at 4-5 h); washed 3x with lysis buffer A (150 mM KCl, 20 mM HEPES-KOH pH 7.4, 1 mM MgCl2, 1 mM DTT); western blot
[6] = molecular target: Muskelin (Drosophila melanogaster (endogenous in embryos and oocytes)); assay: condition: only stringent conditions (denaturing wash buffer with 1 M NaCl, 1% NP-40, 0.05% sodium deoxycholate, 0.1% SDS); co-IP; anti-Muskelin immunoprecipitation from 1 to 2 h embryo lysates (control or Kdo knockdown) under stringent conditions: washed 6x with denaturing wash buffer (50 mM Tris pH 8, 1 M NaCl, 1% NP-40, 0.05% sodium deoxycholate, 0.1% SDS); western blot
[7] = molecular target: Muskelin (Drosophila melanogaster (endogenous in embryos and oocytes)); assay: cross-linking; 0-1 h w1118 embryo lysate cross-linked with 0.2 mM DTSP (3 h, 4 °C) or DMSO, denatured, anti-Muskelin immunoprecipitation with denaturing washes, crosslink reversed with DTT, mass spectrometry; DTSP against DMSO
[8] = molecular target: Houki (Drosophila melanogaster (endogenous in embryos)) (UniProt Q9VWS1); assay: co-IP; anti-Houki immunoprecipitation from embryo lysate (w1118); western blot for CTLH complex components and ME31B

## Muskelin
[1]
  binding: binds
[2]
  binding: binds
[3]
  binding: no binding

B1: ME31B-GFP (protein, UniProt P23128 1-459)
chain: MMTEKLNSGHTNLTSKGIINDLQIAGNTSDDMGWKSKLKLPPKDNRFKTTDVTDTRGNEFEEFCLKRELLMGIFEKGWERPSPIQEAAIPIALSGKDVLARAKNGTGKTGAYCIPVLEQIDPTKDYIQALVMVPTRELALQTSQICIELAKHLDIRVMVTTGGTILKDDILRIYQKVQLIIATPGRILDLMDKKVADMSHCRILVLDEADKLLSLDFQGMLDHVILKLPKDPQILLFSATFPLTVKNFMEKHLREPYEINLMEELTLKGVTQYYAFVQERQKVHCLNTLFSKLQINQSIIFCNSTQRVELLAKKITELGYCCYYIHAKMAQAHRNRVFHDFRQGLCRNLVCSDLFTRGIDVQAVNVVINFDFPRMAETYLHRIGRSGRFGHLGIAINLITYEDRFDLHRIEKELGTEIKPIPKVIDPALYVANVGASVGDTCNNSDLNNSANEEGNVSK
[4]
  binding: no binding
[5]
  binding: binds
[6]
  binding: no binding

B2: ME31B (protein, UniProt P23128 1-459)
chain: MMTEKLNSGHTNLTSKGIINDLQIAGNTSDDMGWKSKLKLPPKDNRFKTTDVTDTRGNEFEEFCLKRELLMGIFEKGWERPSPIQEAAIPIALSGKDVLARAKNGTGKTGAYCIPVLEQIDPTKDYIQALVMVPTRELALQTSQICIELAKHLDIRVMVTTGGTILKDDILRIYQKVQLIIATPGRILDLMDKKVADMSHCRILVLDEADKLLSLDFQGMLDHVILKLPKDPQILLFSATFPLTVKNFMEKHLREPYEINLMEELTLKGVTQYYAFVQERQKVHCLNTLFSKLQINQSIIFCNSTQRVELLAKKITELGYCCYYIHAKMAQAHRNRVFHDFRQGLCRNLVCSDLFTRGIDVQAVNVVINFDFPRMAETYLHRIGRSGRFGHLGIAINLITYEDRFDLHRIEKELGTEIKPIPKVIDPALYVANVGASVGDTCNNSDLNNSANEEGNVSK
[7]
  binding: binds

B3: eIF4E (protein, UniProt P48598 1-259)
chain: MQSDFHRMKNFANPKSMFKTSAPSTEQGRPEPPTSAAAPAEAKDVKPKEDPQETGEPAGNTATTTAPAGDDAVRTEHLYKHPLMNVWTLWYLENDRSKSWEDMQNEITSFDTVEDFWSLYNHIKPPSEIKLGSDYSLFKKNIRPMWEDAANKQGGRWVITLNKSSKTDLDNLWLDVLLCLIGEAFDHSDQICGAVINIRGKSNKISIWTADGNNEEAALEIGHKLRDALRLGRNNSLQYQLHKDTMVKQGSNVKSIYTL
[7]
  binding: binds

B4: RanBPM (protein, UniProt Q4Z8K6 1-962)
chain: MENVEEAPPLSSESNSNSNNSSASSSSHQLSQSGAMGAEIAPSTSRSHSHSPTPSPPVPASSHDQPHPDHPSPPLNASETEARENSPHDHSPTPTFHQTAPPPTTSSTAPQRDEREQQQQQEAPPLQQDQQENSPAQDQELHPLLDQQNQEYPAVHQDQQAEQNQELHHIEGLIRHRESQNPEEHPPQASLENRETLGREDTNQEPDEPQVRDPEIEPEAEPPPPLLLEDLDEQDSGSQDLNEQQPPLIIDANAIAETIDANAVERIDDYEDDDEEVDEEEEVVEDRVDRAGEVASVSGAQRLHSVAVLPRYSSASRAPRSSNNNNNNISNHNNNNNNSNSNSLSRRTRHFYSNNGSHFSNDMFPSHNPRSSTQTSSPRVGGRRHHSTPAASSNSPQHQGVDPLRLLYPNVNESETPLPRCWSPHDKCLSIGLSQNNLRVTYKGVGKQHSDAASVRTAYPIPSSCGLYYFEVRIISKGRNGYMGIGLTAQQFRMNRLPGWDKQSYGYHGDDGNSFSSSGNGQTYGPTFTTGDVIGCCVNFVNNTCFYTKNGVDLGIAFRDLPTKLYPTVGLQTPGEEVDANFGQEPFKFDKIVDMMKEMRSNVLRKIDRYPHLLETPENLMNRLVSTYLVHNAFSKTAEAFNGYTNQTFNEDLASIKTRQKIIKLILTGKMSQAIEHTLRSFPGLLENNKNLWFALKCRQFIEMINGADIENVNNKVTATTQTMPTNQTSVIQSTKTFKHSKSGSGNGNVNINQTQQQNNTAIPAVIKPQGGDRPDIKNMLVDDNSNKCVEHDSNSMDVEMEPCQSHSNGGDSSSNGNASAVRNSLDAIDEEMDVDVSPSSRNCGRVIEKILEFGKELSSMGQQLEKENLMTEEERQMLEDAFSLIAYSNPWSSPLGWLLCPSRRESVSTTLNSAILESLNFERRPPLEYLVAHASELIKVIGQHSLGEDAFITIDDVFPQN
[8]
  binding: binds

These are yes or no findings as the source states them, for the method shown. Binding seen in cells or lysates may run through a third protein. For part of these data: Binding calls can cover weak binding; strength is not graded here. For part of these data: Where a sequence is shown, tags or fusion partners need not be part of it.
